US20210253518A1, “KINASE INHIBITOR” (NISSAN CHEMICAL CORPORATION, priority 2018, published 2021)
Some entries share one result that the patent states for a list of compounds.

Legend:
[1] = tested on: 8 kinds of kinases (CGK2, LATS2, MSK1, p70S6K, PKACα, PKACβ, SGK2, and SGK3); assay: MSA method, summary over 8 kinds of kinases; assay type: biochemical; settings: at 100 nM; each of the 8 kinases
[2] = tested on: human primary epidermal keratinocyte; assay: Cell proliferation of human epidermal keratinocyte (ATP reagent); assay type: cell-based; settings: 10 μM; 4 days; low-adhesion plate
YAP protein = assay: Imaging analysis of nuclear translocation in SKOV3 cells; assay type: cell-based, human; settings: 10 μM, 4 hr, fluorescence intensity ratio 1.4 or more, relative to control group (DMSO)
Procedure: (§1) Compounds k-1:B-1, k-1:H-1, and k-1:J-1 were evaluated for nuclear translocation of YAP protein and TAZ protein. For the nuclear translocation, imaging analysis was performed using the human ovarian cancer cell line SKOV3 (manufactured by DS Pharma Biomedical Co., Ltd) and OperettaCLS (manufactured by PerkinElmer) described below. The compounds were added such that the final concentration of the test concentration of k-1:B-1, k-1:H-1, and k-1:J-1 was 10 μM. […]
(§2) Nine fields of view were imaged per well using a 20× objective lens of Operatta CLS. The cell nucleus region and the cytoplasm region were identified from the obtained fluorescence images by using the analysis software Harmony (manufactured by PerkinElmer), and AlexaFluor® 647 fluorescence intensity per unit area and the AlexaFluor® 555 fluorescence intensity per unit area in each region were extracted. The nuclear translocation was evaluated by calculating the ratio of the fluorescence intensity of the cell nucleus region to the fluorescence intensity of the cytoplasmic region from the extracted values. […]
(§3) The specific compound used in the present invention was evaluated for the nuclear translocation of YAP protein and TAZ protein. […]

TAZ protein = assay: as above; assay type: cell-based, human; settings: 10 μM, 4 hr, fluorescence intensity ratio 1.4 or more, relative to control group (DMSO)
Procedure: as §1, §2, §3

[3] = tested on: genes at the downstream of YAP and TAZ proteins in human primary cornea epithelial cell; assay: Gene expression downstream of YAP and TAZ (Taqman) in cornea epithelial cell; assay type: cell-based; settings: 10 μM, 24 hr, vs control group (DMSO)
[4] = tested on: genes at the downstream of YAP and TAZ proteins in human primary epidermal keratinocyte; assay: Gene expression downstream of YAP and TAZ (Taqman) in epidermal keratinocyte; assay type: cell-based; settings: 10 μM, 24 hr, vs control group (DMSO)

Row | SMILES | activity inhibition rate against 8 kinds of kinases [1] | increase in cell number (luminescence amount relative to control group DMSO) [2] [times] | increase in cell population with nuclear translocation of YAP protein (YAP protein) [times] | increase in cell population with nuclear translocation of TAZ protein (TAZ protein) [times] | increase in CCND1 relative expression level [3] [times] | increase in CYR61 relative expression level [3] [times] | increase in ANKRD relative expression level ([4]; relative to GAPDH) [times] | increase in CCND1 relative expression level [4] [times] | increase in CYR61 relative expression level [4] [times]
1 | CC/C(=N\NC(=O)CNc1cccc(O)c1)c1ccc(O)c(C)c1O [k-1:D-1] | not less than 40% |  |  |  |  |  |  |  | 
2 | CC/C(=N\NC(=O)NCc1cccc(O)c1)c1ccc(O)c(C)c1O [k-1:J-1] | not less than 40% | ≥ 4 | ≥ 6 | ≥ 1.5 | ≥ 1.5 | ≥ 2 | ≥ 5 | ≥ 1.5 | ≥ 1.5
